Experimental data: patent publication US12257251B2, “Use of FAK inhibitor in preparation of drug for treating tumors having NRAS mutation” (INXMED (NANJING) CO., LTD., priority 2019, dated 2025)
The name of at least one read-out is uncertain.

Test system: HT-1080 cells carrying NRAS, CDKN2A and IDH1 gene mutations
Assay: Mouse model of human fibrosarcoma (cell line HT-1080), subcutaneous tumors: tumor growth
Format: in vivo
Details: 6 mg/kg versus MTD
Procedure: • 1. Materials and Method: • 1.1. Design of Research • Treatment began when the median tumor volume was between 70-130 mm^3. • 10 mice in the control group, and 7 mice in the treatment group. • Oral gavage once daily. • Control: 0.5% hydroxyethyl cellulose • BI 853520: 50 mg/kg, 25 mg/kg, 12.5 mg/kg, 6 mg/kg, • Tumor volume was measured 3 times a week and body weight was monitored daily. • Evaluation of treatment outcome was based on absolute volume of individual tumors. • Tolerability was assessed based on changes in body weight.
BI853520: synthesized according to the method in the patent WO2010058032. The dry powder was suspended in 0.5% hydroxyethyl cellulose to obtain the desired concentration for each assay. The pH of this formulation was 3.5. […]
Mice: Athymic female BomTac, approximately 6-week-old NMRI-Foxn1^nu mice were purchased from Taconic, Denmark. […] A Datamars® T-IS 8010 FDX-B transponder implanted subcutaneously in the neck region and a LabMax® II fixed reader were used to identify each mouse. […]
Tumor diameters were measured with calipers three times a week (Monday, Wednesday, and Friday). The volume of each tumor [in mm^3] was calculated according to the equation, “tumor volume=length×diameter^2×π/6”. To monitor the side effects of the treatment, the mice were checked daily for abnormalities and their body weights were measured daily. […]

SMILES: COc1cc(C(=O)NC2CCN(C)CC2)c(F)cc1Nc1ncc(C(F)(F)F)c(Oc2cccc3c2C(=O)N(C)C3)n1 [BI853520]
- Efficacious dose (6 mg/kg), times lower than the MTD: at least 16 times
